From PubChem BioAssay AID1259415 (National Center for Advancing Translational Sciences (NCATS), 2018)
Where “and” joins values, the source holds several entries; their conditions need not be identical. Equal entries are not always repeated. Among all 410,000 compounds or so, about 18,000 (4.4%) were called active. Inconclusive means that the source gave no clear call. Such entries were picked first, then a sample of the others. No stated cut-off is given here; in the data, active means activity change below about -60%; inconclusive means no clear call, values can overlap the other calls; inactive means above about -39%. Where a SMILES comes first, the peptide text is derived from it. [ ]: non-standard residue; d: D form. The star is where a group is joined. Boc = CC(C)(C)OC(=O)*

Experiment: qHTS Assay for inhibitors of the human cytomegalovirus (HCMV)
Details: HFF cells, HCMV-luciferase reporter, 72 h; at 57.5 µM; hits give low values
Summary of the method: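 HFF cells seeded 16 h at 37C, treated with compounds, infected with luciferase-reporter HCMV at MOI 1 PFU/cell; luciferase read at 72 h post infection, normalized to buffer-only and Salinomycin controls.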
On the % scale 0 is the no-effect control and ±100 the full control effect.

Structure (SMILES) | activity change, negative = inhibition
O=C(C1CCN(c2nnnn2-c2ccccc2)CC1)N1CCN(c2ccccc2)CC1 | inactive: -29.2%
CCc1ccc(NC(=O)c2sc3nc(-c4ccccc4)cn3c2C)cc1 | inconclusive: -54%
CCC(=O)Nc1ccc(Cl)c(NC(=S)NC(C)=O)c1 | inconclusive: -48.2%
CCc1ccc(S(=O)(=O)Nc2cc3c(cc2C)n(C)c(=O)n3C)cc1 | inconclusive: -42%
CC1CCCc2sc3ncn(N)c(=N)c3c21 (stereo not drawn) | active: -63.2%
COc1ccc(CNC(=O)CCn2c(=O)[nH]c3ccccc3c2=O)cc1 | inconclusive: -48.6%
COc1ccc(NC(=O)N2CCCc3cc(C)ccc32)c(OC)c1 | inconclusive: -47.1%
Cc1cccc(Oc2ccccc2NC(=O)CSCC(=O)Nc2cc(C)on2)c1 | inconclusive: -59.8%
O=C(CSc1nc2ccccc2o1)c1cc2ccccc2oc1=O | inconclusive: -46.9%
CNc1oc(-c2ccc(OCc3ccccc3)cc2)nc1C#N | inactive: 4.95%
CCN(C(=O)C(C)Sc1ccc(S(=O)(=O)N2CCN(C)CC2)cn1)c1ccccc1 (stereo not drawn) | inactive: -8.04%
CC(C)c1ccc(C(=O)Nc2ccc(N3CCOCC3)cc2)cc1 | active: -66%
COc1cccc(/C=N/Nc2cc(N3CCOCC3)ncn2)c1O | active: -99.2%
O=c1oc(Cl)c(Cl)c2ccccc12 | inconclusive: -40.9%
O=C(Oc1c(CN2CCOCC2)cc(Cl)c2cccnc12)c1ccccc1Cl | active: -98%
CC(=Nc1ccc(O)cc1)c1sc2ccccc2c1O | inactive: -19.8%
CCOc1ccc(CCNc2ncnc3onc(C)c23)cc1OCC | inconclusive: -45.3%
COc1ccc(NC(=S)Nc2cccc(C)n2)cc1 | inconclusive: -48.1%
CC(=O)N1CCc2ccc(S(=O)(=O)N3CCc4ccccc43)cc21 | inconclusive: -45.5%
Fc1ccc(Cn2ccc(-c3cnc(-c4ccccc4)s3)n2)cc1 | inconclusive: -53.6%

Structure (SMILES) | activity change, negative = inhibition
O=C(Cn1c(C(F)(F)F)nc2ccccc21)Nc1ccccc1C(=O)O | inconclusive: -47.1%
CCc1ccc(/C=N/n2c(COc3ccccc3)n[nH]c2=S)cc1 | inconclusive: -58.7%
Cc1ccc(OC(=O)c2ccc3nc(C)sc3c2)cc1 | inactive: 2.04%
Oc1cc(Cl)c(Cl)c(Cl)c1 | inconclusive: -42.5%
CCc1ccc(NC(=O)c2ccc(CNS(=O)(=O)c3ccc4c(c3)C(C)(C)C(=O)N4C)cc2)cc1 | inconclusive: -44.3%
CCOC(=O)C1=CCN(S(=O)(=O)c2ccccc2Br)C1c1ccc(Cl)cc1 (stereo not drawn) | inactive: -14.5%
CCOc1ccc(C(=O)N/N=C/c2cc([N+](=O)[O-])cs2)cc1 | inconclusive: -46.5%
Cc1cccc(C)c1NC(=O)N1CCN(c2nc3ccccc3s2)CC1 | active: -69.8%
N#Cc1c2ccc(O)cc2n2ccccc12 | inconclusive: -55.8%
Oc1ccccc1Nc1nc(NCc2ccccc2)c2ccccc2n1 | inconclusive: -46.9%
O=C(CCNS(=O)(=O)c1ccccc1F)N1CCN(S(=O)(=O)c2cccc(F)c2)CC1 | inconclusive: -40%
CC(C)(C)c1ccc(OCCNC(=S)Nc2ccccc2)cc1 | inconclusive: -49.3%
CCn1cc(C(=O)N2CCN(c3ccccc3OC)CC2)c2cc(OC)c(OC)cc2c1=O | inactive: -4.84% and inactive: -15.4%
CC(=O)Nc1ccc(Nc2nc(C)c([N+](=O)[O-])c(N(C)c3ccccc3)n2)cc1 | inconclusive: -56.6%
COc1ccc(OC)c(Nc2nc(-c3sc(NC(=O)C(C)(C)C)nc3C)cs2)c1 | inconclusive: -50.3%
COc1ccc(OC)c(NC(=O)CCCOc2cc(=O)n(C)c3ccccc23)c1 | inactive: 6.36%
NC(=O)C1CCN(C(=O)CN2CCCc3ccccc32)CC1 | inconclusive: -43%
Cn1c(=O)n(C)c2cc(NS(=O)(=O)c3ccc(Cl)cc3)c(NCc3ccccc3)cc21 | inconclusive: -41.5%
COc1ccc2c(c1)nc(SCC(O)c1ccccc1)n2C (stereo not drawn) | inconclusive: -54.5%
Nc1scc2c(C(=O)N/N=C/c3ccc(Cl)cc3)nn(-c3ccccc3)c(=O)c12 | inconclusive: -42.4%

Structure (SMILES) | activity change, negative = inhibition
CSC(=NC#N)N1CCN(c2ccccn2)CC1 | inconclusive: -41.9%
Cc1ccc(C(=O)NC(=S)NCc2ccccc2)cc1 | inactive: 25.6%
NS(=O)(=O)c1ccc(NCc2ccccc2OCc2ccc(F)cc2)cc1 | inconclusive: -58.2%
N#Cc1ccc(OCC(=O)NCCc2ccc(S(N)(=O)=O)cc2)cc1 | active: -80.3%
Cc1ccc(C)c(C(=O)OCC(=O)Nc2cccc(S(=O)(=O)N3CCCCC3)c2)c1 | inconclusive: -54.1%
CCN(CC)S(=O)(=O)c1cc(C(=O)Oc2cccc(-c3cnc4ccccc4n3)c2)ccc1Br | inactive: 176%
CCN1C(=O)/C(=C/c2ccc(N3CCCC3)cc2)NC1=S | active: -64.6%
O=C(NCCc1csc(-c2cccc(F)c2)n1)c1ccco1 | inconclusive: -46.3%
CCOc1ccc(-c2cccc(NS(=O)(=O)c3cccc([N+](=O)[O-])c3)c2)nn1 | inactive: 55.1%
COc1cccc(Nc2ccc(N3CCCCC3)cc2)c1OC | active: -99.3%
CC1C2=C(CC(C)(C)CC2=O)NC2=C1C(=O)CC(C)(C)C2 | inactive: 91%
O=[N+]([O-])c1cccc(-c2nc3ccccc3s/c2=N/O)c1 | inconclusive: -50.5%
COCC(=O)NCCc1nc2ccccc2[nH]1 | inconclusive: -42%
Nc1c(C(=O)N2CCOCC2)sc2nc3c(cc12)CCCC3 | inconclusive: -54.7%
CC(C)(C)OC(=O)N[C@H](Cc1ccccc1)C(=O)N1CCC[C@@H]1C(=O)O (Boc-[dF]-[dP]-OH) | active: -79.7%
Cc1ccc2nc(Cl)c(C3CC(c4cccs4)=NN3C(=O)CCC(=O)O)cc2c1 (stereo not drawn) | inconclusive: -45.2%
CCc1sc(C(=O)Nc2cccc(-n3cnnn3)c2)cc1C | inconclusive: -40.8%
O=C1OC(CN2CCOCC2)CN1N=Cc1ccc([N+](=O)[O-])o1 (stereo not drawn) | inconclusive: -59.3%

Entries from the list above that have an aryl thioether with sulfur outside any ring (three):
Structure (SMILES) | activity change, negative = inhibition
O=C(CSc1nc2ccccc2o1)c1cc2ccccc2oc1=O | inconclusive: -46.9%
CCN(C(=O)C(C)Sc1ccc(S(=O)(=O)N2CCN(C)CC2)cn1)c1ccccc1 (stereo not drawn) | inactive: -8.04%
COc1ccc2c(c1)nc(SCC(O)c1ccccc1)n2C (stereo not drawn) | inconclusive: -54.5%
